Assay results taken from article PMC7906790.
These are yes or no findings as the source states them, for the method shown. In cells and extracts the contact can be indirect. Some results given as binding are weak or reduced against the parent protein; the word gives no strength. For some of these results: Where a sequence is shown, tags or fusion partners need not be part of it. Each block holds one molecule with its values, some of them ahead of it.

Sequences of proteins named here, by UniProt entry; tags and fusion partners are left off. A change or cut given only in a name is not applied to a line headed by its entry.
UniProt P23321: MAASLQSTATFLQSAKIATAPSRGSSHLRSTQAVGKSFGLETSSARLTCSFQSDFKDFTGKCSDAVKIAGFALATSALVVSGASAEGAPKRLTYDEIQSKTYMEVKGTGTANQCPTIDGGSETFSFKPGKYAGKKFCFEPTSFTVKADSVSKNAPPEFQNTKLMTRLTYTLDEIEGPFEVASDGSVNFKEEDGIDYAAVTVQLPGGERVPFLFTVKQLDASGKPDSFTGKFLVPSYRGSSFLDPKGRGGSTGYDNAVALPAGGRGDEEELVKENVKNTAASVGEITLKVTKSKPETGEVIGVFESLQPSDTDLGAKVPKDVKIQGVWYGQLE

Legend:
[1] = target: T1, SecY1–YFP^N (Myc tagged) (Arabidopsis thaliana) (UniProt Q38885); assay: co-IP; intact tobacco chloroplasts after co-infiltration, solubilised with an equal volume of buffer with 2% digitonin (100 mM Tris-HCl pH 7.5, 300 mM NaCl); anti-Myc antibody and protein A-agarose hold Myc-tagged SecY1–nYFP; immunoblot; wild-type leaves as control
T1 sequence: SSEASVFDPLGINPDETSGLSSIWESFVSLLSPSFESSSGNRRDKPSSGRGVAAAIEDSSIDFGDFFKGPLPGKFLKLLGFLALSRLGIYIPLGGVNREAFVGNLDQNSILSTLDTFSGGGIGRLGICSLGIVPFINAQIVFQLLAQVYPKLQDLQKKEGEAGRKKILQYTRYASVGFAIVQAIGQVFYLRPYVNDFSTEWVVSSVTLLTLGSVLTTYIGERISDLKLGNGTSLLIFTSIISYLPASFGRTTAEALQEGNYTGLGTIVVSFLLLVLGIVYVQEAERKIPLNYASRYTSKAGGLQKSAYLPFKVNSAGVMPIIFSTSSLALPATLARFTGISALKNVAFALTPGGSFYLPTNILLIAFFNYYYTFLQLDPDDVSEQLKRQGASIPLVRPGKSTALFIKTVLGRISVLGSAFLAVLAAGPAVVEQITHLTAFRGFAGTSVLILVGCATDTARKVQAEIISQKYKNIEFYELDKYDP

[2] = target: T1, SecY1–YFP^N (Myc tagged) (Arabidopsis thaliana); assay: split reporter; split YFP (nYFP/cYFP at the C-termini), transient co-expression in N. benthamiana leaf mesophyll chloroplasts, confocal microscopy 48 h after infiltration; also with 10 mM sodium azide or 30 uM geldanamycin
[3] = target: T2, SecY1–T7 (Arabidopsis thaliana) (UniProt Q38885); assay: co-IP; chloroplasts of 12-day-old SECY1–T7/secy1 Arabidopsis seedlings, solubilised with 0.5% DDM; anti-T7 agarose; immunoblot with anti-HSP90C; wild-type seedlings as control; also with 10 mM sodium azide, 30 uM geldanamycin or both
T2 sequence: T1 sequence

- binding [1]: binds
Molecule: PsbO1^59–332GFP (from UniProt P23321 59-332) (domain or fragment)

- binding [1]: binds
Molecule: PsbO1^86–332GFP (from UniProt P23321 86-332) (domain or fragment)

- binding [2]: binds
B1: HSP90C–YFP^C (protein, UniProt Q9SIF2 61-780)
chain: CDAAVAEKETTEEGSGEKFEYQAEVSRLLDLIVHSLYSHKEVFLRELVSNASDALDKLRFLSVTEPSLLGDGGDLEIRIKPDPDNGTITITDTGIGMTKEELIDCLGTIAQSGTSKFLKALKENKDLGADNGLIGQFGVGFYSAFLVAEKVVVSTKSPKSDKQYVWESVADSSSYLIREETDPDNILRRGTQITLYLREDDKYEFAESTRIKNLVKNYSQFVGFPIYTWQEKSRTIEVEEDEPVKEGEEGEPKKKKTTKTEKYWDWELANETKPLWMRNSKEVEKGEYNEFYKKAFNEFLDPLAHTHFTTEGEVEFRSILYIPGMGPLNNEDVTNPKTKNIRLYVKRVFISDDFDGELFPRYLSFVKGVVDSDDLPLNVSREILQESRIVRIMRKRLIRKTFDMIQEISESENKEDYKKFWENFGRFLKLGCIEDTGNHKRITPLLRFFSSKNEEELTSLDDYIENMGENQKAIYYLATDSLKSAKSAPFLEKLIQKDIEVLYLVEPIDEVAIQNLQTYKEKKFVDISKEDLELGDEDEVKDREAKQEFNLLCDWIKQQLGDKVAKVQVSNRLSSSPCVLVSGKFGWSANMERLMKAQALGDTSSLEFMRGRRILEINPDHPIIKDLNAACKNAPESTEATRVVDLLYDTAIISSGFTPDSPAELGNKIYEMMAMAVGGRWGRVEEEEESSTVNEGDDKSGETEVVEPSEVRAESDPWQD

- binding [3]: binds
B2: endogenous Arabidopsis HSP90C (protein, UniProt Q9SIF2 61-780)
chain: B1 chain
